Data on two molecules can be found in doi:10.1101/2025.10.27.684836 (bioRxiv, 2025).

Amino acid sequences for entries named in this document (tags omitted). A change or cut given only in a name is not applied to a line headed by its entry.
UniProt Q8BX22: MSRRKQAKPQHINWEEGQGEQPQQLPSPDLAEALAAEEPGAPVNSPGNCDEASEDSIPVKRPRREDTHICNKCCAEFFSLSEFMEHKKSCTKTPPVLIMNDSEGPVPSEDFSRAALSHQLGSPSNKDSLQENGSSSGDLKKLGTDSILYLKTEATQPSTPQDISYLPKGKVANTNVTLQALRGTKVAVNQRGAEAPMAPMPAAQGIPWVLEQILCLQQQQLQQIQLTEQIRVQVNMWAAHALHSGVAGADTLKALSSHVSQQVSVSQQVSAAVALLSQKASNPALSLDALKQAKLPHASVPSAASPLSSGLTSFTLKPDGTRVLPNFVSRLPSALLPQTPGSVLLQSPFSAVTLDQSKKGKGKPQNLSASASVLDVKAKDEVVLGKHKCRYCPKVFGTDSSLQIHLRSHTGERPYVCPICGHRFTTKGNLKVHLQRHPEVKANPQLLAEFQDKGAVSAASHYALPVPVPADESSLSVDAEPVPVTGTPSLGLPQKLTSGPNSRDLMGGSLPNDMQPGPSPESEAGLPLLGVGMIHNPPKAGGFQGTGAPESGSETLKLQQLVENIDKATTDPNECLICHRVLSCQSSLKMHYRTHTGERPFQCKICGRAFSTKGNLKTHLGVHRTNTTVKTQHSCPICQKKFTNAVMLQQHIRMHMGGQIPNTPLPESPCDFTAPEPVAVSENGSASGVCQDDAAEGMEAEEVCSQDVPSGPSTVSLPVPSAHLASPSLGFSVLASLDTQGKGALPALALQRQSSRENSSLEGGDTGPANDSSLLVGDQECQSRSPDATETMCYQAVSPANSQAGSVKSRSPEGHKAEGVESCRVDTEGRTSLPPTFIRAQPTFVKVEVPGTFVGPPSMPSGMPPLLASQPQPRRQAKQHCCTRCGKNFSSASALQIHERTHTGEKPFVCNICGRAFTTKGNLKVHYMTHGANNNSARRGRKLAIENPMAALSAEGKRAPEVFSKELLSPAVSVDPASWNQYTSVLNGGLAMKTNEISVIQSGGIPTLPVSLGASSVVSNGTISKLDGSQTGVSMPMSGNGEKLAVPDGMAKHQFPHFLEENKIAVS

Common to all, as to test: co-IP
In assay [1] the target is 3xFlag-tagged SALL4 QIDΔ (mouse) (UniProt Q8BX22).
Assay [2] addresses 3xFlag-monoGFP-tagged SALL4 minimal domain construct (205-237) fused to the SALL4 NLS (mouse).
The target of assay [3] is 3xFlag-tagged SALL4 C-terminal truncation removing residue 237 (mouse).

No constants are given. Whether binding was seen depends on the method and setting. Binding seen in cells or lysates may run through a third protein. For part of these data: A result given as binding can be weak or reduced; the word gives no strength.

“HA-tagged SALL4 full-length (from UniProt Q8BX22 1-1067)”: in assay [1], the binding result is given as “no binding”.

B1: SALL1 (endogenous) (protein, UniProt Q9ER74 1-1322)
chain: MSRRKQAKPQHFQSDPEVASLPRRDGDTEKGQPSRPTKSKDAHVCGRCCAEFFELSDLLLHKKSCTKNQLVLIVNESPASPAKTFPPGPSLNDPDDQMKDAANKADQEDCSDLSEPKGLDREESMEVEVPVATTTTTTTGGSGGSGGSTLSGVTNITTPSCHSGCSSGTSAITTSLPQLGDLTTLGNFSVINSNVIIENLQSTKVAVAQFSQEARCGGASGGKLLISTLMEQLLALQQQQIHQLQLIEQIRHQILLLASQSADLPAAPSIPSQGTLRTSANPLTTLSSHLSQQLAVAAGLAQSLASQSANISGVKQLPHVQLPQSSSGTSIVPPSGGTSPNMSIVTAAVPTPSSEKVASNAGASHVSSPAVSASSSPAFAISSLLSPESNPLLPQPTPANAVFPTPLPNIATTAEDLNSLSALAQQRKSKPPNVTAFEAKSTSDEAFFKHKCRFCAKVFGSDSALQIHLRSHTGERPFKCNICGNRFSTKGNLKVHFQRHKEKYPHIQMNPYPVPEHLDNVPTSTGIPYGMSIPSEKPVTSWLDTKPVLPTLTTSVGLPLPPTLPSLTPFIKTEEPAPIPISHSAASPQGSVKSDSGAPDLATRNPSGVPEEVEGSAVPPFGGKGEESNMASSAVPTAGNSTLNSPVADGGPGGTTFTNPLLPLMSEQFKAKFPFGGLLDSAQASETSKLQQLVENIDKKATDPNECIICHRVLSCQSALKMHYRTHTGERPFKCKICGRAFTTKGNLKTHYSVHRAMPPLRVQHSCPICQKKFTNAVVLQQHIRMHMGGQIPNTPVPDNYPESMESDTGSFDEKNFDDLDNFSDENMEECPEGSIPDTPKSADASQDSLSSSPLPLEMSSIAALENQMKMINAGLAEQLQASLKSVENGSMEGDVLTNDSSSVGGDMESQSAGSPAISESTSSMQALSPSNSTQEFHKSPGMEEKPQRVGPGEFANGLSPTPVNGGALDLTSSHAEKIIKEDSLGILFPFRDRGKFKNTACDICGKTFACQSALDIHYRSHTKERPFICTVCNRGFSTKGNLKQHMLTHQMRDLPSQLFEPSSNLGPNQNSAVIPANSLSSLIKTEVNGFVHVSPQDSKDAPTSHVPQGPLSSSATSPVLLPALPRRTPKQHYCNTCGKTFSSSSALQIHERTHTGEKPFACTICGRAFTTKGNLKVHMGTHMWNSTPARRGRRLSVDGPMTFLGGNPVKFPEMFQKDLAARSGSGDPSSFWNQYTAALSNGLAMKANEISVIQNGGIPPIPGSLGSGSSPISGLTGNVEKLGNSEPSAPLAGLEKMASSENGTNFRFTRFVEDSKEIVTS
For B1, the results for the binding result in assay [2] and in assay [3] were “binds” and “no binding”, respectively.
